Assay results as given in patent US20260199497A1, “GLUCOCORTICOID RECEPTOR AGONIST AND CONJUGATE THEREOF” (priority 2023, published 2026).
At least one structure is not confirmed: it was looked up by name or label, or the drawing left a doubt.

Biological target: T1, glucocorticoid receptor (Homo sapiens, UniProt P04150)
T1 sequence (P04150 1-777): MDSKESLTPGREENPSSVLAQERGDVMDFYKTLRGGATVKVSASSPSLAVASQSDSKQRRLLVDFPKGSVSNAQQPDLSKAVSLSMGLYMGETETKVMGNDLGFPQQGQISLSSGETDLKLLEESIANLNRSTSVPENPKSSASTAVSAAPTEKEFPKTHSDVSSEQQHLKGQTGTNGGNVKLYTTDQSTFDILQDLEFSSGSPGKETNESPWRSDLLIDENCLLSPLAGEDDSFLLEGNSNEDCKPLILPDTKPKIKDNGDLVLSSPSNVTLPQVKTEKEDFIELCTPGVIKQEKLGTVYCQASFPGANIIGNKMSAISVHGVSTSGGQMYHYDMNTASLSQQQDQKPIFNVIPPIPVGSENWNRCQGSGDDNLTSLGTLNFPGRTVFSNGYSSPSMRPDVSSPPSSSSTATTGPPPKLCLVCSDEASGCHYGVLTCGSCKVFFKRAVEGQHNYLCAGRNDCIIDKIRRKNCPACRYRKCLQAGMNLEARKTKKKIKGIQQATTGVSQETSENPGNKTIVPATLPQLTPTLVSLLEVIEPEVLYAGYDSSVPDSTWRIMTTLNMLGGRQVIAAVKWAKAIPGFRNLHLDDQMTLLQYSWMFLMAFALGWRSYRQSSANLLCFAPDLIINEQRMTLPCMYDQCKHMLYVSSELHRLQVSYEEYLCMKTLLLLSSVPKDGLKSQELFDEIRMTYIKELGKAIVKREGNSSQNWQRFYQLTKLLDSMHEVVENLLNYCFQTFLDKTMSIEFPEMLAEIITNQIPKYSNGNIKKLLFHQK
Assay: In vitro activation activity of the glucocorticoid on the glucocorticoid receptor in Hela-MMTV luciferase reporter cells
Format: cell-based
Conditions: 48 hours, compared with comparative compound 1
Protocol: The activation activity of the glucocorticoid on glucocorticoid receptor was tested in the constructed Hela-MMTV luciferase reporter system cells. Adherent Hela-MMTV cells were digested using a Trypsin-EDTA (0.25%) solution, counted, and the cells in a required number were resuspended in complete medium (1640+10% FBS). The cells were then plated in a 96-well cell culture plate at 10,000 cells/100 μl. The glucocorticoid was diluted in complete medium, starting at a final concentration of 75 nM, followed by 5-fold gradient dilution, and was added to the plated cells at 100 μl per well. The cells were incubated in a cell culture incubator at 37° C. for 48 hours. Then Bio-Lite luciferase assay reagent (Vazyme DD1201-03) was added to the cells at 20 μl per well, followed by homogeneously shaking for 10 minutes, and luminescence readings were obtained using a microplate reader. The data were imported into GraphPad Prism 8 software to calculate the EC50 value.

`C[C@H](O)CC(=O)O[C@]1(C(=O)SCF)[C@H](C)C[C@H]2[C@@H]3C[C@H](F)C4=CC(=O)C=C[C@]4(C)[C@@]3(F)[C@@H](O)C[C@@]21C` [D-15, (6S,8S,9R,10S,11S,13S,14S,16R,17R)-6,9-difluoro-17-(((fluoromethyl)thio)carbonyl)-11-hydroxy-10,13,16-trimethyl-3-oxo-6,7,8,9,10,11,12,13,14,15,16,17-dodecahydro-3H-cyclopenta[a]phenanthren-17-yl (S)-3-hydroxybutyrate] was tested, and the “in vitro activation activity on the glucocorticoid receptor in the cells” value was “superior to comparative compound 1”.
